“And” between values parts separate entries of the source, which are not always exact repeats. Equal values may be shown once. Read-outs that look alike come from different tables or passages of the source. This continues a long series; more values of the same kind are listed elsewhere.
System: BL21(DE3) E. coli transformed with pUCP18 vector expressing untagged AAC(3)-IIIa
Format: cell-based
Method: Ten milliliters of LB containing […] ampicillin were inoculated from glycerol stocks of transformed BL21(DE3) E. coli containing genes expressing the proteins of interest in pUCP18 vectors. These cultures were incubated at 37 °C with 200 rpm agitation for 16 h. Turbidity was measured through OD600 with a NanoDrop OneC Spectrometer (Thermo Scientific). From the initial cultures, secondary 10 mL cultures were prepared with OD600 values of 0.1. These cultures were grown until OD600 values of 0.4–0.6 were reached and diluted to bring all cultures to the same OD600. Cultures were induced with 1 mM Isopropyl β-D-1-thiogalactopyranoside and incubated for 4 h. Two microliters of culture was added to 198 μL of LB with an appropriate aminoglycoside titration concentration. Each titration point was repeated n = 4 times. The formulated 96-well culture plate (Sarstedt) had OD600 measured on a 20-min interval over 17 h using a BioTek Cytation 5 Cell Imaging Multimode Reader, incubating at 37 °C with 282 cpm orbital agitation. Experiments were repeated with fresh cultures on separate days to ensure consistent trends. Data was analyzed in Microsoft Excel and GraphPad5. The remainder of the culture immediately had its RNA isolated for qPCR experiments.

Structure (SMILES): CN[C@@H]1[C@@H](O)[C@@H](O[C@@H]2[C@@H](O)[C@H](O[C@H]3OC(CN)=CC[C@H]3N)[C@@H](N)C[C@H]2N)OC[C@]1(C)O [Sisomicin, sisomicin]
- OD600 growth curve (3 ug/mL Sisomicin, time point 00:19:10): 0.101 and 0.111 and 0.099
- OD600 growth curve (3 ug/mL Sisomicin, time point 00:39:10): 0.104 and 0.115 and 0.102
- OD600 growth curve (3 ug/mL Sisomicin, time point 00:59:10): 0.112 and 0.121 and 0.111 and 0.108
- OD600 growth curve (3 ug/mL Sisomicin, time point 01:19:10): 0.125 and 0.132 and 0.122 and 0.117
- OD600 growth curve (3 ug/mL Sisomicin, time point 01:39:10): 0.143 and 0.147 and 0.136 and 0.13
- OD600 growth curve (3 ug/mL Sisomicin, time point 01:59:10): 0.168 and 0.167 and 0.154 and 0.149
- OD600 growth curve (3 ug/mL Sisomicin, time point 02:19:10): 0.208 and 0.191 and 0.177 and 0.174
- OD600 growth curve (3 ug/mL Sisomicin, time point 02:39:10): 0.256 and 0.223 and 0.208 and 0.206
- OD600 growth curve (3 ug/mL Sisomicin, time point 02:59:10): 0.313 and 0.259 and 0.242 and 0.245
- OD600 growth curve (3 ug/mL Sisomicin, time point 03:19:10): 0.364 and 0.286 and 0.271 and 0.274
- OD600 growth curve (3 ug/mL Sisomicin, time point 03:39:10): 0.395 and 0.308 and 0.297 and 0.3
- OD600 growth curve (3 ug/mL Sisomicin, time point 03:59:10): 0.42 and 0.329 and 0.319 and 0.322
- OD600 growth curve (3 ug/mL Sisomicin, time point 04:19:10): 0.442 and 0.346 and 0.336 and 0.335
- OD600 growth curve (3 ug/mL Sisomicin, time point 04:39:10): 0.47 and 0.371 and 0.357 and 0.362
- OD600 growth curve (3 ug/mL Sisomicin, time point 04:59:10): 0.503 and 0.395 and 0.384 and 0.39
- OD600 growth curve (3 ug/mL Sisomicin, time point 05:19:10): 0.526 and 0.414 and 0.405 and 0.411
- OD600 growth curve (3 ug/mL Sisomicin, time point 05:39:10): 0.551 and 0.432 and 0.422 and 0.43
- OD600 growth curve (3 ug/mL Sisomicin, time point 05:59:10): 0.574 and 0.451 and 0.437 and 0.449
- OD600 growth curve (3 ug/mL Sisomicin, time point 06:19:10): 0.595 and 0.464 and 0.45 and 0.463
- OD600 growth curve (3 ug/mL Sisomicin, time point 06:39:10): 0.605 and 0.471 and 0.456 and 0.474
- OD600 growth curve (3 ug/mL Sisomicin, time point 06:59:10): 0.611 and 0.475 and 0.462 and 0.481
- OD600 growth curve (3 ug/mL Sisomicin, time point 07:19:10): 0.621 and 0.483 and 0.468 and 0.486
- OD600 growth curve (3 ug/mL Sisomicin, time point 07:39:10): 0.63 and 0.49 and 0.475 and 0.493
- OD600 growth curve (3 ug/mL Sisomicin, time point 07:59:10): 0.638 and 0.498 and 0.481 and 0.499
- OD600 growth curve (3 ug/mL Sisomicin, time point 08:19:10): 0.649 and 0.504 and 0.485 and 0.508
- OD600 growth curve (3 ug/mL Sisomicin, time point 08:39:10): 0.659 and 0.512 and 0.49 and 0.514
- OD600 growth curve (3 ug/mL Sisomicin, time point 08:59:10): 0.681 and 0.523 and 0.504 and 0.533
- OD600 growth curve (3 ug/mL Sisomicin, time point 09:19:10): 0.697 and 0.539 and 0.517 and 0.551
- OD600 growth curve (3 ug/mL Sisomicin, time point 09:39:10): 0.706 and 0.551 and 0.529 and 0.563
- OD600 growth curve (3 ug/mL Sisomicin, time point 09:59:10): 0.713 and 0.556 and 0.535 and 0.57
- OD600 growth curve (3 ug/mL Sisomicin, time point 10:19:10): 0.718 and 0.558 and 0.537 and 0.574
- OD600 growth curve (3 ug/mL Sisomicin, time point 10:39:10): 0.724 and 0.56 and 0.537 and 0.578
- OD600 growth curve (3 ug/mL Sisomicin, time point 10:59:10): 0.729 and 0.562 and 0.539 and 0.583
- OD600 growth curve (3 ug/mL Sisomicin, time point 11:19:10): 0.734 and 0.561 and 0.539 and 0.584
- OD600 growth curve (3 ug/mL Sisomicin, time point 11:39:10): 0.738 and 0.56 and 0.54 and 0.586
- OD600 growth curve (3 ug/mL Sisomicin, time point 11:59:10): 0.742 and 0.559 and 0.536 and 0.586
- OD600 growth curve (3 ug/mL Sisomicin, time point 12:19:10): 0.746 and 0.563 and 0.538 and 0.589
- OD600 growth curve (3 ug/mL Sisomicin, time point 12:39:10): 0.754 and 0.577 and 0.558 and 0.598
- OD600 growth curve (3 ug/mL Sisomicin, time point 12:59:10): 0.755 and 0.576 and 0.557 and 0.595
- OD600 growth curve (3 ug/mL Sisomicin, time point 13:19:10): 0.749 and 0.573 and 0.553 and 0.59
- OD600 growth curve (3 ug/mL Sisomicin, time point 13:39:10): 0.744 and 0.57 and 0.55 and 0.585
- OD600 growth curve (3 ug/mL Sisomicin, time point 13:59:10): 0.736 and 0.567 and 0.548 and 0.581
- OD600 growth curve (3 ug/mL Sisomicin, time point 14:19:10): 0.739 and 0.565 and 0.549 and 0.577
- OD600 growth curve (3 ug/mL Sisomicin, time point 14:39:10): 0.737 and 0.562 and 0.547 and 0.573
- OD600 growth curve (3 ug/mL Sisomicin, time point 14:59:10): 0.731 and 0.561 and 0.545 and 0.568
- OD600 growth curve (3 ug/mL Sisomicin, time point 15:19:10): 0.726 and 0.557 and 0.542 and 0.563
- OD600 growth curve (3 ug/mL Sisomicin, time point 15:39:10): 0.719 and 0.556 and 0.541 and 0.558
- OD600 growth curve (3 ug/mL Sisomicin, time point 15:59:10): 0.713 and 0.554 and 0.538
- OD600 growth curve (3 ug/mL Sisomicin, time point 16:19:10): 0.707 and 0.552 and 0.536 and 0.55
- OD600 growth curve (3 ug/mL Sisomicin, time point 16:39:10): 0.702 and 0.55 and 0.533 and 0.545
- OD600 growth curve (3 ug/mL Sisomicin, time point 16:59:10): 0.692 and 0.549 and 0.531 and 0.543
- OD600 growth curve (3 ug/mL Sisomicin, time point 17:19:10): 0.685 and 0.547 and 0.529 and 0.538
- OD600 growth curve (6 ug/mL Sisomicin, time point 00:19:10): 0.099 and 0.1 and 0.105 and 0.102
- OD600 growth curve (6 ug/mL Sisomicin, time point 00:39:10): 0.1 and 0.102 and 0.107 and 0.104
- OD600 growth curve (6 ug/mL Sisomicin, time point 00:59:10): 0.103 and 0.108 and 0.113
- OD600 growth curve (6 ug/mL Sisomicin, time point 01:19:10): 0.106 and 0.111 and 0.117 and 0.112
- OD600 growth curve (6 ug/mL Sisomicin, time point 01:39:10): 0.11 and 0.116 and 0.124 and 0.117
- OD600 growth curve (6 ug/mL Sisomicin, time point 01:59:10): 0.115 and 0.123 and 0.133 and 0.124
- OD600 growth curve (6 ug/mL Sisomicin, time point 02:19:10): 0.121 and 0.132 and 0.144
- OD600 growth curve (6 ug/mL Sisomicin, time point 02:39:10): 0.129 and 0.141 and 0.154 and 0.142
- OD600 growth curve (6 ug/mL Sisomicin, time point 02:59:10): 0.138 and 0.151 and 0.163 and 0.15
- OD600 growth curve (6 ug/mL Sisomicin, time point 03:19:10): 0.145 and 0.161 and 0.172 and 0.158
- OD600 growth curve (6 ug/mL Sisomicin, time point 03:39:10): 0.152 and 0.171 and 0.18 and 0.166
- OD600 growth curve (6 ug/mL Sisomicin, time point 03:59:10): 0.16 and 0.181 and 0.187 and 0.171
- OD600 growth curve (6 ug/mL Sisomicin, time point 04:19:10): 0.169 and 0.191 and 0.195 and 0.178
- OD600 growth curve (6 ug/mL Sisomicin, time point 04:39:10): 0.178 and 0.201 and 0.203 and 0.183
- OD600 growth curve (6 ug/mL Sisomicin, time point 04:59:10): 0.188 and 0.211
- OD600 growth curve (6 ug/mL Sisomicin, time point 05:19:10): 0.199 and 0.22 and 0.219 and 0.191
- OD600 growth curve (6 ug/mL Sisomicin, time point 05:39:10): 0.213 and 0.23 and 0.227 and 0.195
- OD600 growth curve (6 ug/mL Sisomicin, time point 05:59:10): 0.224 and 0.238 and 0.235 and 0.199
- OD600 growth curve (6 ug/mL Sisomicin, time point 06:19:10): 0.235 and 0.247 and 0.243 and 0.203
- OD600 growth curve (6 ug/mL Sisomicin, time point 06:39:10): 0.247 and 0.256 and 0.251 and 0.206
- OD600 growth curve (6 ug/mL Sisomicin, time point 06:59:10): 0.256 and 0.267 and 0.258 and 0.21
- OD600 growth curve (6 ug/mL Sisomicin, time point 07:19:10): 0.267 and 0.277 and 0.266 and 0.214
- OD600 growth curve (6 ug/mL Sisomicin, time point 07:39:10): 0.274 and 0.288 and 0.272 and 0.218
- OD600 growth curve (6 ug/mL Sisomicin, time point 07:59:10): 0.283 and 0.3 and 0.279 and 0.223
- OD600 growth curve (6 ug/mL Sisomicin, time point 08:19:10): 0.292 and 0.31 and 0.286 and 0.23
- OD600 growth curve (6 ug/mL Sisomicin, time point 08:39:10): 0.299 and 0.318 and 0.292 and 0.237

— paper PMC12378234, “Enzyme-mediated aminoglycoside resistance without target mimicry” (Communications Chemistry, 2025)
